Experiment [1] deals with Myc-tagged full-length mutant HTT (FL-mHTT-Q148) (UniProt P42858). The experiment is described as follows: co-IP; FLAG-tagged PNKP or its domains transfected into PC12 cells expressing Myc-tagged full-length HTT (Q23 or Q148); IP with anti-Myc antibody from nuclear extract, blot with anti-FLAG.
Experiment [2] has the same target. Briefly: co-IP; Myc-tagged full-length HTT or N-terminal HTT fragment immunoprecipitated with anti-Myc antibody from nuclear extract of PC12 cells; western blot for endogenous proteins. Background: Immunoblotting shows a protein as a band on a membrane.

Protein sequences, listed by entry. Tags and fused reporters are not part of them. Lines headed by an entry give the natural chain unless they say otherwise; changes in a name come on top.
UniProt P42858: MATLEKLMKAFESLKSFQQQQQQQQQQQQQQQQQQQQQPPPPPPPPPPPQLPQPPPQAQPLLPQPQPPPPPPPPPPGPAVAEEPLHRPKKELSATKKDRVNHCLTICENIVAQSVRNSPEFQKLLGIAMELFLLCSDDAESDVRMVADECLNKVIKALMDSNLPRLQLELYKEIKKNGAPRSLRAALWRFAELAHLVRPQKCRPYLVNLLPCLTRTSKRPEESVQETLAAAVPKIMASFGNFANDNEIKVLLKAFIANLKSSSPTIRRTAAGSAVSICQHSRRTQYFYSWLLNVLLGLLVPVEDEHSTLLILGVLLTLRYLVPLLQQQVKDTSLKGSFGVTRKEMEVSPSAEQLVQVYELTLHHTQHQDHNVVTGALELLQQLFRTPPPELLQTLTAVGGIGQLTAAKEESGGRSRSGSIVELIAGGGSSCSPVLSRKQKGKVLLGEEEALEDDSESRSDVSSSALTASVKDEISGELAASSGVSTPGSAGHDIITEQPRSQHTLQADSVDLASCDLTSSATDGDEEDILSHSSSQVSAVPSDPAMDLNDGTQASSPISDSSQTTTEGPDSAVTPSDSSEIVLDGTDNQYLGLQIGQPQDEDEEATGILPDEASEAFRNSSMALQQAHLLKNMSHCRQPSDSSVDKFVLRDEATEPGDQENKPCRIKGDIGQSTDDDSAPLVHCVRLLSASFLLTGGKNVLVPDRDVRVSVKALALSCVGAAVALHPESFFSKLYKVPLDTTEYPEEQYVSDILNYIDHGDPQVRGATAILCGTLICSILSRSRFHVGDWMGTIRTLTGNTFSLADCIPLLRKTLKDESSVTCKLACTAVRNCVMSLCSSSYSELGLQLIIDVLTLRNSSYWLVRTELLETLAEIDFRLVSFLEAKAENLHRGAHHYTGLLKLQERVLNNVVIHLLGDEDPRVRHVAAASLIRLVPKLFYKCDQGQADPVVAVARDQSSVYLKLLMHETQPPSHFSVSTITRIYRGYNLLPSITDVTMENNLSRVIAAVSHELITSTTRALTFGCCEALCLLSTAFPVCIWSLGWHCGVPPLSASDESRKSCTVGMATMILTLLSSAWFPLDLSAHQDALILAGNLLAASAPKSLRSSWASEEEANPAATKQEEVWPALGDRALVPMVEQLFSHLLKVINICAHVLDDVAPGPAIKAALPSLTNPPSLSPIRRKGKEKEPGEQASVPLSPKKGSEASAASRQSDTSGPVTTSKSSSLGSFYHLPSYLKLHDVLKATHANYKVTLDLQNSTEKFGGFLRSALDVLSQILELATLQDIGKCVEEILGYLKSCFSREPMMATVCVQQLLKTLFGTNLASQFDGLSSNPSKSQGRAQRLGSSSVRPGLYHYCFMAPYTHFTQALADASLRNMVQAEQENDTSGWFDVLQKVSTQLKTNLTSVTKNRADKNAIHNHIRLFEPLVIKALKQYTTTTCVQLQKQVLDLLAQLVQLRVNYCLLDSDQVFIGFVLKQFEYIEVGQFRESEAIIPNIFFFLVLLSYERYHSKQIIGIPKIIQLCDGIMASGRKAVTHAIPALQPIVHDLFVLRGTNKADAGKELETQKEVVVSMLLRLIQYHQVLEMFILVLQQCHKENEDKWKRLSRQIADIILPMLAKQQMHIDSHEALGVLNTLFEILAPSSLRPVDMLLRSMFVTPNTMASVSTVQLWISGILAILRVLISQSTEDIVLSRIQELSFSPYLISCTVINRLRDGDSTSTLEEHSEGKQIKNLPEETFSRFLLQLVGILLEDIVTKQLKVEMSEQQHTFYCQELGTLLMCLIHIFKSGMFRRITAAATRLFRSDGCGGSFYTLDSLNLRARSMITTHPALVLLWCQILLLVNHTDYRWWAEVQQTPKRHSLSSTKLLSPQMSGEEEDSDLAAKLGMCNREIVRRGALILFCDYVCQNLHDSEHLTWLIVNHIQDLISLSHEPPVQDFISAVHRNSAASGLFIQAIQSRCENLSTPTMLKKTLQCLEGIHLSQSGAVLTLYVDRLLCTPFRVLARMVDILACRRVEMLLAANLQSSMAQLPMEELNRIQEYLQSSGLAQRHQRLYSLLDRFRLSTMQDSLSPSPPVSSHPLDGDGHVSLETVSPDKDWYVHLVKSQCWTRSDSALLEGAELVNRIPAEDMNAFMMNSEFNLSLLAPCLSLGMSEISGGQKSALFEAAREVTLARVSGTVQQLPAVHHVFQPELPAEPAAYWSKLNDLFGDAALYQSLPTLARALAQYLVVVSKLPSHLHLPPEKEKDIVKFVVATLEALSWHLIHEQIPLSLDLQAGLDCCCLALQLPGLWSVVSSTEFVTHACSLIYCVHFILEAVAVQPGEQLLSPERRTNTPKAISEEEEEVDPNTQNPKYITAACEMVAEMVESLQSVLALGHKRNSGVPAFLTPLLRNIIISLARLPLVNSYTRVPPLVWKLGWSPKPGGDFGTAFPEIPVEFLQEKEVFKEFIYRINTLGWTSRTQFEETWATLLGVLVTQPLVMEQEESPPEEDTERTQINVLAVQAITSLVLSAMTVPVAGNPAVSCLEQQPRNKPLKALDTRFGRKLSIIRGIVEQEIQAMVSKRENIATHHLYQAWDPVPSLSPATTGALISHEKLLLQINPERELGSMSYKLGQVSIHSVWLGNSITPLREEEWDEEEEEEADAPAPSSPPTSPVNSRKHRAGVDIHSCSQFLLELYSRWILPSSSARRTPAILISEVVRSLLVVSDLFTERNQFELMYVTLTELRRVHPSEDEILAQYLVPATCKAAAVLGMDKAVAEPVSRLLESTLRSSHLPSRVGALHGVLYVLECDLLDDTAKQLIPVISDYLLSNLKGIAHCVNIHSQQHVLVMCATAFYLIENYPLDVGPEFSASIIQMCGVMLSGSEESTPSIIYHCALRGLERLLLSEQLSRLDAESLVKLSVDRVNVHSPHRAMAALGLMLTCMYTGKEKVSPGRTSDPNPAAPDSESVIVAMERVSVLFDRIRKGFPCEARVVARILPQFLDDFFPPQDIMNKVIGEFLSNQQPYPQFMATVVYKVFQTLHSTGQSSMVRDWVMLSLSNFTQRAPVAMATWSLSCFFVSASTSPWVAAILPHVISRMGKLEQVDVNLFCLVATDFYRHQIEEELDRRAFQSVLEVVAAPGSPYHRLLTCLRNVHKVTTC
UniProt P43138: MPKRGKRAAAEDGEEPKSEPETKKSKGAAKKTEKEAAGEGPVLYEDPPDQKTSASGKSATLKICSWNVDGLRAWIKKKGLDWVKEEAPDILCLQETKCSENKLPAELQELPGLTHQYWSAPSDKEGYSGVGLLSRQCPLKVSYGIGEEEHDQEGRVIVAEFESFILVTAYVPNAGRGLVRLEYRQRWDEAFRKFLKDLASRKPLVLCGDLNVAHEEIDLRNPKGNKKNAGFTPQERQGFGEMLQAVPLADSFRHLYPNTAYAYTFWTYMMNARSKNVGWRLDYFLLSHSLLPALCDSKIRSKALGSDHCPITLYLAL
UniProt O35815: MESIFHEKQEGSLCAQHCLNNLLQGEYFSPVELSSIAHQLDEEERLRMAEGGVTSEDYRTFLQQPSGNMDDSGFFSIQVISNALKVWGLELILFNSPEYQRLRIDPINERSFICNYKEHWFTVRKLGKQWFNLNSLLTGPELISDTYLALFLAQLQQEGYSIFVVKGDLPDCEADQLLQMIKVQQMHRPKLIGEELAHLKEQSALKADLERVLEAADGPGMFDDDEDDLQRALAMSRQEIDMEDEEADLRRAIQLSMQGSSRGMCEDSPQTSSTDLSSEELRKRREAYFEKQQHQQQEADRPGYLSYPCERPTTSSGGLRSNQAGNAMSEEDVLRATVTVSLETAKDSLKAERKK

No constants are given. Whether binding was seen depends on the method and setting. In cells and extracts the contact can be indirect. Binding can be weak; no strength is given.

As for “FLAG-tagged full-length PNKP (FL-PNKP) (from UniProt Q96T60 1-521) (enzyme)”, the binding entry in experiment [1] is given as “binds”. Take “FLAG-tagged PNKP PHOS + KIN domains (C-terminal catalytic domain) (from UniProt Q96T60 131-521) (domain or fragment)”: the binding result in experiment [1] is “binds”.

With “APE1, endogenous in PC12 cells (from UniProt P43138 1-317) (enzyme)”, in experiment [2], the binding entry was “no binding”. As to “ATXN3, endogenous in PC12 cells (from UniProt O35815 1-355) (enzyme)”, in experiment [2], the binding result is given as “binds”. “CBP, endogenous in PC12 cells (from UniProt Q6JHU9 1-2442) (enzyme)”: in experiment [2], the binding entry is “binds”.
